PubChem BioAssay AID504784 – Drosophila RNAi Screening Center, 2011
Screen: 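Genome-wide knock-down for genes giving too much or too little stored lipid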 (primary screen). Cells: Drosophila Kc167 embryonic cells. Reagents: long dsRNA against Drosophila genes, about 250 ng dsRNA per well. Timing: 4 days. Treatment: cells fed 400 µM oleic acid bound to BSA. Read-out: 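Cells imaged and segmented; ratio of lipid droplet area to nuclear area, log-transformed, then normalised as a B-score over the screen; higher means more stored lipid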. Scale: droplet/nuclear area B-score: higher = more stored lipid (overstorage).
In all, the deposit lists about 17,000 reagents; shown is an unselected part of those with a known target gene and a result. 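Each column is one replicate's B-score; the combined score over replicates was not deposited, so single values may mislead.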 A plus sign joins genes that one reagent is predicted to hit. No sequences are given here.

| target | amplicon | droplet/nuclear area B-score, replicate 1 | droplet/nuclear area B-score, replicate 2 | droplet/nuclear area B-score, replicate 3 |
| --- | --- | --- | --- | --- |
| Jhbp16 | DRSC15039 | 2.56 | 0.855 | – |
| tou | DRSC06006 | -1.5 | -0.962 | – |
| tou | DRSC22710 | 0.627 | 2.43 | – |
| CG15643 | DRSC19679 | 0.545 | -0.183 | – |
| CG3091 | DRSC18274 | -0.193 | -3.37 | – |
| TTLL12 | DRSC06555 | 0.715 | -0.627 | – |
| eEF5 | DRSC04681 | -1.99 | -2.15 | – |
| Eglp1 | DRSC04502 | 0.355 | 2.32 | – |
| Ugt49B2 | DRSC16049 | -0.175 | -0.174 | – |
| ova | DRSC02879 | -0.795 | 0.114 | – |
| Syb | DRSC07559 | -0.118 | -0.1 | – |
| CG10340 | DRSC14232 | 4.17 | -0.711 | – |
| CG42238 | DRSC03180 | 0.462 | 1.36 | – |
| CG18301 | DRSC02662 | 0.439 | 2.5 | – |
| CG8191 | DRSC20091 | 1.29 | 0.326 | – |
| Ubc84D | DRSC12610 | 0.786 | -0.0679 | – |
| lbl | DRSC16986 | 1.46 | -0.164 | – |
| CG13123 | DRSC02219 | 2.08 | 1.2 | – |
| CG15753 (retired record) | DRSC19718 | 0.00192 | 0.233 | 2.56 |
| CG15753 (retired record) | DRSC22985 | 2.58 | 1.23 | – |
| Syt4 | DRSC12606 | -0.0706 | 0.802 | – |
| Srg2 + CG42826 | DRSC10681 | 4.43 | -0.296 | – |
| Srg2 + CG42826 | DRSC10682 | 0.0993 | 1.03 | – |
| CG14879 | DRSC15003 | -0.139 | 1.73 | – |
| RpS4 | DRSC11272 | 3.78 | 4.24 | – |
| CG17111 | DRSC15174 | -0.564 | 0.621 | – |
| tHMG2 | DRSC16182 | -1.63 | -0.603 | – |
| CG2930 | DRSC17730 | 2.19 | – | – |
| CG11333 | DRSC14301 | -0.828 | -0.801 | – |
| Jhe | DRSC07174 | 1.38 | -1.38 | – |
| CG12659 | DRSC17862 | 0.145 | -1.86 | – |
| Whamy | DRSC14574 | -0.0547 | -1.97 | – |
| Ran-like | DRSC10918 | 0.503 | -0.888 | -0.631 |
| CG13231 | DRSC06351 | -0.719 | 0.717 | – |
| CG8066 | DRSC16374 | -0.744 | -2.74 | – |
| CG14634 | DRSC17944 | -0.39 | -0.0905 | – |
| Mrp4 | DRSC14931 | -1.18 | -0.0829 | – |
| jim | DRSC11889 | -1.83 | -0.0428 | -0.485 |
| Or65c | DRSC21312 | 2.78 | 0.76 | – |
| Vav | DRSC20384 | -0.0663 | -0.833 | – |
| Mtp | DRSC03216 | -0.191 | -0.066 | – |
| CG4367 | DRSC15568 | 0.416 | -0.502 | – |
| peg | DRSC15216 | 0.516 | 0.0131 | – |
| CG31797 | DRSC02476 | 1.17 | -1.36 | – |
| CG31797 | DRSC02477 | -0.886 | -0.525 | – |
| eIF4H2 | DRSC14582 | 0.0212 | – | – |
| Atg6 | DRSC15798 | -1.65 | -2.54 | – |
| SRPK | DRSC07090 | 0.397 | 0.29 | – |
| Itpr | DRSC12354 | 2.02 | 0.48 | – |
| CG13840 | DRSC14690 | 3.24 | -0.814 | – |
| CG13840 | DRSC23279 | -0.324 | -0.0226 | – |
| spin | DRSC07176 | 0.482 | -2.45 | 1.89 |
| spin | DRSC22271 | 0.123 | -0.781 | – |
| Traf4 | DRSC00445 | -0.0452 | -1.18 | – |
| Traf4 | DRSC00794 | 0.0509 | -0.185 | – |
| CG1394 | DRSC19539 | 1.16 | 1.04 | 2.46 |
| Tengl1 | DRSC00481 | -0.902 | -0.0111 | – |
| mRpL43 | DRSC04508 | 0.669 | 0.0647 | 12.2 |
| mRpL43 | DRSC22571 | 2.1 | 0.832 | – |
| GstE5 | DRSC06675 | -1.11 | 1.28 | – |
| Sgt1 | DRSC16519 | -1.76 | -2.14 | – |
| Ir94d | DRSC21568 | 0.192 | 0.551 | – |
| CG17751 | DRSC15261 | -0.464 | -5.3 | – |
| CG17751 | DRSC22837 | 1.47 | 1.53 | – |
| cdm | DRSC16213 | 0.0536 | 2.91 | – |
| CG5886 | DRSC15908 | -0.452 | – | – |
| Gcn2 | DRSC16678 | -2.52 | 8.37 | – |
| Pebp1 | DRSC15354 | 0.618 | -0.177 | – |
| CG12851 | DRSC04131 | 0.721 | 2.18 | – |
| CG1136 | DRSC08184 | -1.58 | -0.468 | – |
| Arfrp1 | DRSC18417 | 3.64 | 2.61 | 1.91 |
| SCCRO4 | DRSC10671 | -1.8 | -0.128 | – |
| Slik | DRSC04471 | -1.45 | 0.127 | – |
| Fntb | DRSC15244 | -0.524 | 0.411 | – |
| CG32182 | DRSC09508 | -2.23 | -1.15 | – |
| nst | DRSC09755 | 2.14 | -0.978 | – |
| Hinfp | DRSC18484 | 0.552 | 0.158 | – |
| rsh | DRSC19816 | -0.0123 | 0.374 | 0.943 |
| Cyt-b5-r | DRSC03308 | -0.488 | 0.0543 | – |
| CG9008 | DRSC01889 | 0.584 | 0.921 | – |
| CG13605 | DRSC14608 | -0.526 | -2.44 | – |
| CG3703 | DRSC18172 | 0.0483 | -0.0249 | – |
| CG3703 | DRSC18173 | 0.0134 | 0.841 | – |
| CG3703 | DRSC18643 | -0.997 | 0.594 | – |
| melt | DRSC11367 | 0.241 | -0.275 | – |
| aux | DRSC12161 | 0.907 | -0.0734 | 1.08 |
| Btnd | DRSC18316 | 0.122 | 0.000189 | – |
| wda | DRSC15579 | 0.737 | 0.447 | -0.0344 |
| wda | DRSC22351 | 0 | 1.54 | – |
| Kif19A | DRSC16576 | -0.477 | -0.824 | – |
| Spt5 | DRSC07556 | -1.88 | 0.55 | – |
| CycG | DRSC14324 | 1.51 | 2 | – |
| CycG | DRSC23345 | -2.24 | 0.136 | – |
| Spf30 | DRSC11976 | -1.67 | -1.58 | – |
| mbm | DRSC00319 | 0.952 | 0.0621 | – |
| Acbp2 | DRSC11141 | 1.24 | -0.0129 | – |
| CG12121 | DRSC17816 | -0.494 | 0.0367 | 1.76 |
| CNMaR | DRSC08992 | 1.55 | 1.51 | – |
| CNMaR | DRSC10224 | 0.718 | 1.2 | – |
| Hpr1 | DRSC12296 | -0.0739 | -0.0128 | – |
| Smyd4-3 | DRSC07041 | -0.349 | -2.34 | – |
| CG16713 | DRSC00477 | -1.06 | 0.232 | – |
| CG32302 | DRSC08340 | 2.08 | 0.519 | – |
| spn-F | DRSC14475 | 0.877 | – | – |
| wech | DRSC06606 | 0.591 | -0.0195 | – |

No new results follow: an excerpt of the list.
| target | amplicon | droplet/nuclear area B-score, replicate 1 | droplet/nuclear area B-score, replicate 2 | droplet/nuclear area B-score, replicate 3 |
| --- | --- | --- | --- | --- |
| mbm | DRSC00319 | 0.952 | 0.0621 | – |
| Acbp2 | DRSC11141 | 1.24 | -0.0129 | – |
| CG12121 | DRSC17816 | -0.494 | 0.0367 | 1.76 |
| CNMaR | DRSC08992 | 1.55 | 1.51 | – |
| CNMaR | DRSC10224 | 0.718 | 1.2 | – |
| Hpr1 | DRSC12296 | -0.0739 | -0.0128 | – |
